Measured values published in the supplement of paper PMC11732987, “Enantioselective OTUD7B fragment discovery through chemoproteomics screening and high-throughput optimisation” (Communications Chemistry, 2025).
The list shows a part of the results. The data scatter; read single values as rough.

The chains behind the UniProt entries cited, without tags or fusion partners. Where a name states a change or a piece, a line headed by the entry shows the natural chain unless it says otherwise. Residues count along the entry.
UniProt Q99570, whole entry, looked up: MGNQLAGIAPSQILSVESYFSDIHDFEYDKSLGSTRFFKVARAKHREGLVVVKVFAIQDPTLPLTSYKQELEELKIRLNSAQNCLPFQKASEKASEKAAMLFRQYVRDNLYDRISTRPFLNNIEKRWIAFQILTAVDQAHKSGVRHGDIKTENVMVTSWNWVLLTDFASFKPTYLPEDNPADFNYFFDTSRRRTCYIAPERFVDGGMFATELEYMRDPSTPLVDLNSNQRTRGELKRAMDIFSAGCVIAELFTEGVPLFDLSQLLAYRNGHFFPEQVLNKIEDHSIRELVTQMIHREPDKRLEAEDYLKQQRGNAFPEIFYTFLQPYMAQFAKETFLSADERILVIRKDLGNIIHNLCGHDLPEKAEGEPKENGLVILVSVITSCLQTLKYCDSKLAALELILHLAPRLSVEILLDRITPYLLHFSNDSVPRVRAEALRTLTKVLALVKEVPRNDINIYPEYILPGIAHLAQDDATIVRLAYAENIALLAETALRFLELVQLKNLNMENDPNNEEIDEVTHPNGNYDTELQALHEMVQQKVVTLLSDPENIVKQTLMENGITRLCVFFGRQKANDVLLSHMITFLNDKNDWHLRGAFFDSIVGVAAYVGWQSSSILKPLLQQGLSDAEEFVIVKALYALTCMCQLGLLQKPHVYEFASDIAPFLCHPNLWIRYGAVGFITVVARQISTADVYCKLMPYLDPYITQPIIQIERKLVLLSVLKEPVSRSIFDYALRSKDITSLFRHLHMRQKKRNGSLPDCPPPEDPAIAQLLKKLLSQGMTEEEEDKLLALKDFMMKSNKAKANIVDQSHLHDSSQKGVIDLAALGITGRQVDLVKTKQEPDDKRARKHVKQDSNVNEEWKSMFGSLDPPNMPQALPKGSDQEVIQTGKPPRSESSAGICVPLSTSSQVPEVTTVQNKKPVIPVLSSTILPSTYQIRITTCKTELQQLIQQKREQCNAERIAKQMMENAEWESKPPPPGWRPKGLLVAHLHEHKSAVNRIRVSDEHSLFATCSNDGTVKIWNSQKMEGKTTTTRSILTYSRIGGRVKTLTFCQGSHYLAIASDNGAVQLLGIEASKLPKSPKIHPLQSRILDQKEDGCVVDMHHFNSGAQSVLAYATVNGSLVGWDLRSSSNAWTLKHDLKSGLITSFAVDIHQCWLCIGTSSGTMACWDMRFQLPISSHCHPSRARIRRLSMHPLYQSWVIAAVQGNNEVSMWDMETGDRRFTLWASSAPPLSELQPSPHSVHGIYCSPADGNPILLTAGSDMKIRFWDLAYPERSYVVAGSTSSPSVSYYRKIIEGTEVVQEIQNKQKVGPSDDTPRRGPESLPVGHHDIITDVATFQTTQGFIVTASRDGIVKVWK
UniProt P09884: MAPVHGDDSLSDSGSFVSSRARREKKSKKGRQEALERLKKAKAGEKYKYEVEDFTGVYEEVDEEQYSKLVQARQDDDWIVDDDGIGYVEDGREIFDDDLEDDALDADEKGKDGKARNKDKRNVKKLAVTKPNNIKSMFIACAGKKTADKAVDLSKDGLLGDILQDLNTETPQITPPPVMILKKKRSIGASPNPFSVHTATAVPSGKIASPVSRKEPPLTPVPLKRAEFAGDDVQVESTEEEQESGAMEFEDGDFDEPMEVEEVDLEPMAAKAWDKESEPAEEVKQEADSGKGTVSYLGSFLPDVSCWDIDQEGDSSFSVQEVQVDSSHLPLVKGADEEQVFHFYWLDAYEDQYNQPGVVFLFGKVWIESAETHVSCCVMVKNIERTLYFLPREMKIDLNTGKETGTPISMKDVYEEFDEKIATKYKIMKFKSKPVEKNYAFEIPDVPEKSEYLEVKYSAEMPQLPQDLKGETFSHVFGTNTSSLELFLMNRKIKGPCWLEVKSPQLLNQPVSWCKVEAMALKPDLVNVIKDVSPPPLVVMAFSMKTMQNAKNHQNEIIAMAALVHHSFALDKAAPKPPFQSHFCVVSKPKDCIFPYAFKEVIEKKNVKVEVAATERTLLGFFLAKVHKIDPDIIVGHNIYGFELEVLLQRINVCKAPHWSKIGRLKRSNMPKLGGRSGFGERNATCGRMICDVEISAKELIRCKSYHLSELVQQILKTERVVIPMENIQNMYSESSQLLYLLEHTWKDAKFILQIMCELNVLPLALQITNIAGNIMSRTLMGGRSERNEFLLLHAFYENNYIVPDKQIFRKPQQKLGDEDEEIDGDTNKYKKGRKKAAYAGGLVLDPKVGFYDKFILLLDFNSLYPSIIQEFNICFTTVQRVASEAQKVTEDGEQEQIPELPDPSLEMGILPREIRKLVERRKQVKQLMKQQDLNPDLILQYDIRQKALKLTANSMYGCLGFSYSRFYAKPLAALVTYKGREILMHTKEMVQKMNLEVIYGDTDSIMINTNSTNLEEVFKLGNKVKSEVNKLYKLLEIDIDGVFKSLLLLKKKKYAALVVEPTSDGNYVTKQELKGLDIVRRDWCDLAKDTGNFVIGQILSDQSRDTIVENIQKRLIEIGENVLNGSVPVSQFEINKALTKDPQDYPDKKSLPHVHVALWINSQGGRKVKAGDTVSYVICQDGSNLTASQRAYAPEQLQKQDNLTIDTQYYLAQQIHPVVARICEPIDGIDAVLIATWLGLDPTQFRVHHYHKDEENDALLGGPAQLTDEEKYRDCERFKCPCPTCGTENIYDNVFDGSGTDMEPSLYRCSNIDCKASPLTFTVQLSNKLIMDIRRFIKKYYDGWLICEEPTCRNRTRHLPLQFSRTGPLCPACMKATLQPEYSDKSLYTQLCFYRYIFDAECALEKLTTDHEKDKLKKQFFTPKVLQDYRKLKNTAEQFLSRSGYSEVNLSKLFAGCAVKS
UniProt Q9H9Y6, whole entry, looked up: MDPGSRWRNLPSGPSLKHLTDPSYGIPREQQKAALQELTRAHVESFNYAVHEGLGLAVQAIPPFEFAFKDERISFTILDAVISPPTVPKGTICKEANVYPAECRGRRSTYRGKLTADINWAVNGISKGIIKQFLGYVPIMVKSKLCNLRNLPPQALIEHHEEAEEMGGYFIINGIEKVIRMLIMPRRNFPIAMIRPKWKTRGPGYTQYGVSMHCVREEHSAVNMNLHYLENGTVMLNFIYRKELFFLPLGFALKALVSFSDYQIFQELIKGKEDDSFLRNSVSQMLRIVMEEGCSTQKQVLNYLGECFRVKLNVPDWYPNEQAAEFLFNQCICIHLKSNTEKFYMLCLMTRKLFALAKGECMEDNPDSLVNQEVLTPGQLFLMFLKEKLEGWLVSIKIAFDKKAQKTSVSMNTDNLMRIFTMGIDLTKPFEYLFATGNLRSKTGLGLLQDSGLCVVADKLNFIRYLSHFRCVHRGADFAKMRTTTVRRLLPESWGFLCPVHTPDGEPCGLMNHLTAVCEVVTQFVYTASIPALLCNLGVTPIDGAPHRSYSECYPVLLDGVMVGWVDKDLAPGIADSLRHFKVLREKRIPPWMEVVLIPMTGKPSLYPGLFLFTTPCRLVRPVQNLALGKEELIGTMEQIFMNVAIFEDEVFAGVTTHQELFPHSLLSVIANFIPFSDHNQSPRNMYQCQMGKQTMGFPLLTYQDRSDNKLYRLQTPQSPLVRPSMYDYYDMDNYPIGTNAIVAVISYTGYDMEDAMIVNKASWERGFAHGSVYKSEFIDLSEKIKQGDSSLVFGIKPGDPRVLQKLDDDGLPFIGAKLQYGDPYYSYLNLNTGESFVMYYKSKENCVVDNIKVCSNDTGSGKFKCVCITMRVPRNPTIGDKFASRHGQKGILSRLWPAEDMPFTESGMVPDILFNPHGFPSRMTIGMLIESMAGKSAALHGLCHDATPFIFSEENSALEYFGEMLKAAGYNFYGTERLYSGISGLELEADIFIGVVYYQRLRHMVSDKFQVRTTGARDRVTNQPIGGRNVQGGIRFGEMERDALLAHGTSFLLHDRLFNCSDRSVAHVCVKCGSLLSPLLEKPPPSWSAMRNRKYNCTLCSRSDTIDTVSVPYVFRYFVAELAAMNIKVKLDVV
UniProt O95602: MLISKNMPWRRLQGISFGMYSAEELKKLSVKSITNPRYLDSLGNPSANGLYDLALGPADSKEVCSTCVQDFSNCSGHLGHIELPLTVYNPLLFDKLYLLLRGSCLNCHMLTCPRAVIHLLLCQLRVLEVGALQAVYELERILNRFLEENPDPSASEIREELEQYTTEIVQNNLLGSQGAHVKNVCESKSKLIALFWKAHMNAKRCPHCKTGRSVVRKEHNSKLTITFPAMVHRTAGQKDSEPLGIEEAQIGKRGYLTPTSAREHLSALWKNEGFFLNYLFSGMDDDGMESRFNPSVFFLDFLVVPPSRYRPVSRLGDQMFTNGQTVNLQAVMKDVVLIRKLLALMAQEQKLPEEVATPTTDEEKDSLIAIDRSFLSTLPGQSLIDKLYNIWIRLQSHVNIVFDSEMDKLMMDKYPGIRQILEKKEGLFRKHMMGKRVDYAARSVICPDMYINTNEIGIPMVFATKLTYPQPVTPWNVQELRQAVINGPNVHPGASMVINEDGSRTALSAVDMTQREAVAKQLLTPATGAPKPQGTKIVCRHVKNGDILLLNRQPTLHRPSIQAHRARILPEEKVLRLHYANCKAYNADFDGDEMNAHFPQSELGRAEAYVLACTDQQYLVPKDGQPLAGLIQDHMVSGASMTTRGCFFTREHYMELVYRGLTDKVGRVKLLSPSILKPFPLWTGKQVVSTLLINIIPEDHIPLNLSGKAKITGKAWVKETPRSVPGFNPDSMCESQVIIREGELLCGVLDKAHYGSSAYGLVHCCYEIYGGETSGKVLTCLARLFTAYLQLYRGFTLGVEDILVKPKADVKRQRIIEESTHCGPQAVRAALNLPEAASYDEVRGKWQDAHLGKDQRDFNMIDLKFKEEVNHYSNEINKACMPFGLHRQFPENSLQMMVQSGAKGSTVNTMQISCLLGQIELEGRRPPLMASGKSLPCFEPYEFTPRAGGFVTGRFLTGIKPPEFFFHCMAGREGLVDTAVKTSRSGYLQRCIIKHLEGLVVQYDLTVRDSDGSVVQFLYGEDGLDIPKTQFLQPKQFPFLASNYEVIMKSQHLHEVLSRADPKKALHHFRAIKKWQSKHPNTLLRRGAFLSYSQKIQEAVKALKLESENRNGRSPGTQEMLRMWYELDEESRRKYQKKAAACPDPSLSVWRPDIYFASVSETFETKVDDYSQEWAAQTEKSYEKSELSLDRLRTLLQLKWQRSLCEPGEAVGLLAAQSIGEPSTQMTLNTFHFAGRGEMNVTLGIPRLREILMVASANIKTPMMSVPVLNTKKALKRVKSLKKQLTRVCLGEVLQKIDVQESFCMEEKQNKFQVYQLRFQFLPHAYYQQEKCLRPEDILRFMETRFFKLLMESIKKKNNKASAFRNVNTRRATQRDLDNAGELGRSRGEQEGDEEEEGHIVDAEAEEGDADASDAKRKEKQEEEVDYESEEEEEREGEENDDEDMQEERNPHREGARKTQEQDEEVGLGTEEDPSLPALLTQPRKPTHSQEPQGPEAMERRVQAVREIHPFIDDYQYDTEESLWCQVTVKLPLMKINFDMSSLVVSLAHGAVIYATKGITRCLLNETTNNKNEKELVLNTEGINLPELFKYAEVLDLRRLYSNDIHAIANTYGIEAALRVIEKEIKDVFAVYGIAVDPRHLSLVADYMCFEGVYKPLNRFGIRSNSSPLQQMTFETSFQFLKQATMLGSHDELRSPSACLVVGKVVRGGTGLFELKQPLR
UniProt Q92576, 1757-1778: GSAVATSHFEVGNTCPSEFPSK
UniProt Q6P5Z2: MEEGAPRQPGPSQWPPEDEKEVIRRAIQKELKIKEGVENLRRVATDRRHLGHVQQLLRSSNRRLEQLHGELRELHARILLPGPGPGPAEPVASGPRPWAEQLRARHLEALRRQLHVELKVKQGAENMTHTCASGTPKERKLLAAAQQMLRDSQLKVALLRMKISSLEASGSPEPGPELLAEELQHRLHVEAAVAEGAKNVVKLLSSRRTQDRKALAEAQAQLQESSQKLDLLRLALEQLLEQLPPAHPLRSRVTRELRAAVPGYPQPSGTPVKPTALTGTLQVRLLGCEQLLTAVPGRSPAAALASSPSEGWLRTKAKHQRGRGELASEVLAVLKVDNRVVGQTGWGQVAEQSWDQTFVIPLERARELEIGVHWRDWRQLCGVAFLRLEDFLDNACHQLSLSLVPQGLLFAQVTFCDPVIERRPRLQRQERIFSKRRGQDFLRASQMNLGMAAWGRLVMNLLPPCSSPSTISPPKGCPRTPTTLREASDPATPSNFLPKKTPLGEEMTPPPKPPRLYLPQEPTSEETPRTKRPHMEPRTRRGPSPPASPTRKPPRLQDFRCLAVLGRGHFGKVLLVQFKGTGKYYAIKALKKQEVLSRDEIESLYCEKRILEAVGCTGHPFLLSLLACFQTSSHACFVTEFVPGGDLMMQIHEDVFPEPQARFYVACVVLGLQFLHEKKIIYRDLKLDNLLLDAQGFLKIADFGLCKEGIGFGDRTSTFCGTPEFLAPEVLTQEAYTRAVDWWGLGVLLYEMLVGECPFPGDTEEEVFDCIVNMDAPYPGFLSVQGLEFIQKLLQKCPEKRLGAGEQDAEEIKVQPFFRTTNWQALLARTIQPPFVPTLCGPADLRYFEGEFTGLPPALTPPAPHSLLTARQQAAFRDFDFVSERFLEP

Experiments:
[1] = compound: ClCC(=O)N[C@@H]1CCCc2ccccc12; experiment: log2 mean competition ratio of IA-DTB cysteine labelling (DMSO/compound) (log2 ratio); higher = stronger cysteine engagement by compound; conditions: treatment time: 4 h, cell line lysate: HEK293T
Procedure: (§1)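 IA-DTB competitive cysteine chemoproteomics in HEK293T RIPA lysate. Lysates were treated with compound 29 or 30 at 50 or 200 µM for 4 h, then IA-DTB (500 µM, 1 h), trypsin-digested, NeutrAvidin-enriched and analysed by diaPASEF. Competition ratio = intensity DMSO / intensity compound (n=4 treated, n=64 DMSO); binding: mean log2 CR ≥ 1 and p ≤ 0.05 plus QC filters. Target is the cysteine site.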

[2] = compound: ClCC(=O)N[C@H]1CCCc2ccccc12; experiment: as above; conditions: treatment time: 4 h, cell line lysate: HEK293T
Procedure: as §1

Target | log2 mean competition ratio ([1]; 50 µM) | log2 mean competition ratio ([1]; 200 µM) | log2 mean competition ratio ([2]; 50 µM) | log2 mean competition ratio ([2]; 200 µM)
PLA2G4A C726 (UniProt P47712) | 0.0735 | -0.128 | -0.0979 | -0.145
POLR1G C150 | 0.3 | -0.138 | 0.324 | -0.0505
PIK3R4 C955 (UniProt Q99570) | 0.00396 | 0.374 | -0.0528 | 0.308
PIGQ C247 (UniProt Q9BRB3) | -0.205 | 0.0428 | -0.225 | -0.128
PHLDB1 C13 (UniProt Q86UU1) | 0.494 | -0.194 | -0.279 | -0.327
PLEC C4454 (UniProt Q15149) | -0.521 | -0.403 | 0.016 | -0.597
PINX1 C145 (UniProt Q96BK5) | -0.0532 | 0.488 | 0.184 | 0.499
POLL C241 | -0.0164 | -0.213 | -0.0433 | -0.271
PIP4K2A C343 (UniProt P48426) | -0.201 | -0.0715 | -0.342 | -0.324
PMPCB C277 (UniProt O75439) | -0.0397 | -0.179 | 0.0939 | -0.0487
PMPCB C62 (UniProt O75439) | 0.00662 | -0.0247 | -0.122 | 0.00379
PIGT C182 | -0.144 | -0.0053 | -0.121 | -0.0202
PLOD1 C369 (UniProt Q02809) | -0.194 | 0.339 | 0.228 | 0.205
POLE C2158 (UniProt Q07864) | 0.0312 | 0.00551 | 0.139 | 0.184
PLCG1 C247 (UniProt P19174) | – | – | -0.051 | 0.124
PLIN2 C302 (UniProt Q99541) | -0.22 | -0.193 | -0.339 | -0.316
POLA1 C141 (UniProt P09884) | 0.504 | -0.0854 | 1.1 | -0.0637
PIP4K2B C5 (UniProt P78356) | – | – | 0.349 | -0.0629
PKN1 C662 (UniProt Q16512) | -0.327 | 0.117 | -0.0848 | 0.21
POLR1B C1070 (UniProt Q9H9Y6) | – | – | 0.35 | -0.434

No new results follow: an excerpt of the list.
Target | log2 mean competition ratio ([1]; 50 µM) | log2 mean competition ratio ([1]; 200 µM) | log2 mean competition ratio ([2]; 50 µM) | log2 mean competition ratio ([2]; 200 µM)
PLA2G4A C726 (UniProt P47712) | 0.0735 | -0.128 | -0.0979 | -0.145
POLR1G C150 | 0.3 | -0.138 | 0.324 | -0.0505
PIK3R4 C955 (UniProt Q99570) | 0.00396 | 0.374 | -0.0528 | 0.308
PIGQ C247 (UniProt Q9BRB3) | -0.205 | 0.0428 | -0.225 | -0.128

Going on with the list:

Target | log2 mean competition ratio ([1]; 50 µM) | log2 mean competition ratio ([1]; 200 µM) | log2 mean competition ratio ([2]; 50 µM) | log2 mean competition ratio ([2]; 200 µM)
PHKA1 C1185 (UniProt P46020) | – | – | -0.0583 | -0.0124
PHKA1 C844 (UniProt P46020) | – | – | -0.812 | 0.0129
PIK3CA C862 (UniProt P42336) | – | – | -0.141 | -0.183
POLR1A C733 (UniProt O95602) | – | – | 0.156 | 0.143
POLE C1076 (UniProt Q07864) | -0.322 | 0.112 | -0.227 | 0.139
PIGA C28 (UniProt P37287) | – | – | – | 0.184
POLR1B C855 (UniProt Q9H9Y6) | – | – | -0.438 | -0.145
PLXNB2 C1484 (UniProt O15031) | – | – | -0.4 | -0.0154
PHRF1 C710 (UniProt Q9P1Y6) | -0.0336 | 0.257 | 0.114 | 0.238
PHF3 C1771 (UniProt Q92576) | -0.0786 | 0.529 | -0.0174 | 0.0451
POLDIP3 C338 (UniProt Q9BY77) | -0.0993 | -0.0226 | 0.106 | -0.0316
POLA1 C514 (UniProt P09884) | – | – | 0.133 | 0.351
PLXNA1 C1525 (UniProt Q9UIW2) | 0.0101 | -0.11 | -0.286 | 0.141
PLS3 C463 | – | – | -0.392 | -0.186
PLOD2 C494 (UniProt O00469) | -0.177 | 0.404 | -0.277 | 0.399
PLIN3 C39 (UniProt O60664) | – | – | 0.347 | 0.198
PIAS2 C490 (UniProt O75928) | – | 0.00444 | 0.201 | 0.136
POLA1 C1458 (UniProt P09884) | 0.0153 | 0.0655 | 0.358 | 0.0524
PIK3R4 C84 (UniProt Q99570) | – | – | 0.127 | 0.0163
POC1B C418 (UniProt Q8TC44) | -0.14 | 0.0756 | -0.076 | 0.334

Target | log2 mean competition ratio ([1]; 50 µM) | log2 mean competition ratio ([1]; 200 µM) | log2 mean competition ratio ([2]; 50 µM) | log2 mean competition ratio ([2]; 200 µM)
PI4K2A C320 (UniProt Q9BTU6) | – | – | 0.443 | -0.0718
PHKB C280 (UniProt Q93100) | -0.198 | -0.427 | 0.587 | 0.0925
PHF3 C186 (UniProt Q92576) | – | – | 0.064 | -0.176
PHF3 C885 (UniProt Q92576) | -0.102 | -0.0819 | -0.211 | -0.0486
POLR1B C1061 (UniProt Q9H9Y6) | – | – | 0.015 | 0.137
POLR1A C822 (UniProt O95602) | – | – | -0.268 | -0.215
POLK C8 (UniProt Q9UBT6) | – | – | -0.715 | 0.24
PLPBP C86 (UniProt O94903) | -0.0422 | -0.329 | -0.103 | -0.311
POLR1A C937 (UniProt O95602) | – | – | 0.201 | -0.0498
PLEKHM2 C735 (UniProt Q8IWE5) | – | – | -0.0578 | -0.0151
PIKFYVE C1663 (UniProt Q9Y2I7) | – | – | 0.0977 | 0.112
PKM C474 | – | – | 0.213 | -0.0868
POLQ C2295 (UniProt O75417) | – | – | 0.281 | 0.513
PKN3 C840 (UniProt Q6P5Z2) | – | – | -0.0526 | 0.0431
PIGH C26 (UniProt Q14442) | – | – | -0.0469 | 0.0587
PHF3 C276 (UniProt Q92576) | – | – | -0.227 | 0.554
PLEKHA5 C891 (UniProt Q9HAU0) | – | – | -0.369 | 0.0115
POLI C336 (UniProt Q9UNA4) | – | – | -0.386 | 0.146
PLS3 C167 | – | – | 0.208 | 0.313
PMF1 C13 (UniProt Q6P1K2) | – | – | -0.398 | 0.128
